Measured values reported in US8802596B2, “Multi-functional ionic liquid compositions for overcoming polymorphism and imparting improved properties for active pharmaceutical, biological, nutritional, and energetic ingredients” (Board of Trustees of the University of Alabama, priority 2005, dated 2014).

Assay: Taste of the salt
Conditions: in words

Row | SMILES | Taste
1 | CC1=CC(=O)[N-]S(=O)(=O)O1.CCCCCCCCCCCC[N+](C)(C)Cc1ccccc1 [[BA][Ace], benzalkonium acesulfamate] | sweet taste
2 | CCCCCCCCCCCC[N+](C)(C)Cc1ccccc1.O=C1[N-]S(=O)(=O)c2ccccc21 [[BA][Sac], benzalkonium saccharinate] | very sweet in taste
3 | CC1=CC([O-])=NS(=O)(=O)O1.CCCCCCCCCC[N+](C)(C)CCCCCCCCCC [[DDA][Ace], didecyldimethylammonium acesulfamate] | sweet
4 | CCCCCCCCCC[N+](C)(C)CCCCCCCCCC.O=C1[N-]S(=O)(=O)c2ccccc21 [[DDA][Sac], Didecyldimethylammonium Saccharinate] | sweet
